Source: patent publication US20130217592A1, “ARRAYS AND METHODS COMPRISING M. SMITHII GENE PRODUCTS” (THE WASHINGTON UNIVERSITY, priority 2007, published 2013)
Values joined by “and” are separate entries in the source; they are usually repeats but may differ in a detail not shown here. Equal values may be shown once.

How the values were obtained:
[1] = tested on: M. smithii strain F1; assay: Statin susceptibility, M. smithii strain F1 (Table 17, FIG. 11), average optical density (600 nm); format: cell-based, Methanobrevibacter smithii; conditions: statin 100 μM, successive unlabelled time points
Procedure: (§1) A system for culturing M. smithii in 96-well plate format was designed and constructed in the following manner (See FIG. 15). Three stainless steel paint canisters (Binks, 83S-210, 2 gallon size) were modified for incubation of plates at 37° C. in an oxygen-free gas mix of 20% CO2/80% H2 at a pressure of 30 psi, where all of these growth parameters can be monitored and recorded. […]
(§2) The system is pressurized with oxygen-free gas that has flowed through a custom-built oxygen scrub. […] Pressure in each tank is measured and recorded with a digital manometer (LEO record, Omni Instruments).
(§3) The system is housed inside an anaerobic chamber (COY laboratories) to allow inspection and manipulation of cultures and plates without exposing M. smithii to oxygen. Each tank can house 30 standard volume 96-well plates, which can be analyzed inside the COY anaerobic chamber with a microplate reader (BioRad) that monitors growth by measuring optical density.
(§4) 1.5 μl of the stock solutions were added to wells in 96-well plates and transferred to the COY anaerobic chamber where they were kept for at least 24 hours to become anaerobic. […] Growth was measured by determining optical density at 600 nm using the BioRad microplate reader (model 680). […]

[2] = tested on: M. smithii strain PS; assay: Statin susceptibility, M. smithii strain PS (Table 16, FIG. 10), average optical density (600 nm); format: cell-based, Methanobrevibacter smithii; conditions: statin 100 μM, successive unlabelled time points
Procedure: as §1, §2, §3, §4

CC(C)c1c(C(=O)Nc2ccccc2)c(-c2ccccc2)c(-c2ccc(F)cc2)n1CC[C@@H](O)C[C@@H](O)CC(=O)O [atorvastatin]
average optical density (600 nm), standard deviation [1]: 0.018 (0.002) and 0.018 (0.003) and 0.016 (0.002) and 0.015 (0.001) and 0.01 (0) and 0.018 (0.001)
average optical density (600 nm), standard deviation [2]: 0.031 (0.006) and 0.03 (0.007) and 0.033 (0.007) and 0.033 (0.002) and 0.024 (0.007) and 0.032 (0.003) and 0.032 (0.007)
